# In the supplement of paper PMC8728848:
# Some of the results follow.
# B1: AT1G77380(17) (Arabidopsis thaliana), Q39134 (protein)
# chain: MVQNHQTVLAVDMPQTGGSKYLDDDGKNKRTGSVWTASAHIITAVIGSGVLSLAWATAQLGWLAGPVVMLLFSAVTYFTSSLLAACYRSGDPISGKRNYTYMDAVRSNLGGVKVTLCGIVQYLNIFGVAIGYTIASAISMMAIKRSNCFHKSGGKDPCHMNSNPYMIAFGLVQILFSQIPDFDQLWWLSILAAVMSFTYSSAGLALGIAQVVVNGKVKGSLTGISIGAVTETQKIWRTFQALGDIAFAYSYSIILIEIQDTVKSPPSEEKTMKKATLVSVSVTTMFYMLCGCMGYAAFGDLSPGNLLTGFGFYNPYWLLDIANAAIVIHLIGAYQVYCQPLFAFIEKQASIQFPDSEFIAKDIKIPIPGFKPLRLNVFRLIWRTVFVIITTVISMLLPFFNDVVGLLGALGFWPLTVYFPVEMYIAQKKIPRWSTRWVCLQVFSLGCLVVSIAAAAGSIAGVLLDLKSYKPFRSEY
# Columns and labels:
# Assay in all cases: glycan array binding signal (z-score within array); higher = stronger binding
# Details in all cases: glycan notation: IUPAC condensed, linker removed
# [1] = biological target: Neu5Ac(a2-6)Gal(b1-4)GlcNAc(b1-3)Gal(b1-4)GlcNAc(b1-3)Gal(b1-4)GlcNAc
# Summary of the method: (§1)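 Columns mapping to the same glycan were averaged after glycan names were converted to IUPAC-condensed notation. The data come from 3228 arrays in the Consortium for Functional Glycomics database, limited to those with an available protein sequence. Binding is reported as a within-array Z-score averaged across arrays of one protein sequence and across linkers.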
# [2] = biological target: Neu5Ac(a2-6)Gal(b1-4)GlcNAc(b1-3)Gal(b1-4)GlcNAc(b1-3)Gal(b1-4)GlcNAc(b1-2)Man(a1-3)[Neu5Ac(a2-6)Gal(b1-4)GlcNAc(b1-3)Gal(b1-4)GlcNAc(b1-3)Gal(b1-4)GlcNAc(b1-2)Man(a1-6)]GalNAc
# Summary of the method: as §1
# [3] = biological target: Neu5Ac(a2-6)Gal(b1-4)GlcNAc(b1-3)Gal(b1-4)GlcNAc(b1-3)GalNAc
# Summary of the method: as §1
# [4] = biological target: Neu5Ac(a2-6)Gal(b1-4)GlcNAc(b1-3)Gal(b1-4)GlcNAc(b1-3)[Neu5Ac(a2-6)Gal(b1-4)GlcNAc(b1-3)Gal(b1-4)GlcNAc(b1-6)]GalNAc
# Summary of the method: as §1
# [5] = biological target: Neu5Ac(a2-6)Gal(b1-4)GlcNAc(b1-3)Gal(b1-4)GlcNAc(b1-6)[Gal(b1-3)]GalNAc
# Summary of the method: as §1
# [6] = biological target: Neu5Ac(a2-6)Gal(b1-4)GlcNAc(b1-3)Gal(b1-4)[Fuc(a1-3)]GlcNAc(b1-3)Gal(b1-4)[Fuc(a1-3)]GlcNAc
# Summary of the method: as §1
# [7] = biological target: Neu5Ac(a2-6)Gal(b1-4)GlcNAc(b1-3)GalNAc
# Summary of the method: as §1
# [8] = biological target: Neu5Ac(a2-6)Gal(b1-4)GlcNAc(b1-3)[Neu5Ac(a2-6)Gal(b1-4)GlcNAc(b1-6)]GalNAc
# Summary of the method: as §1
# [9] = biological target: Neu5Ac(a2-6)Gal(b1-4)GlcNAc(b1-6)GalNAc
# Summary of the method: as §1
# [10] = biological target: Neu5Ac(a2-6)Gal(b1-4)GlcNAc(b1-6)[Gal(b1-3)GlcNAc(b1-3)]Gal(b1-4)Glc
# Summary of the method: as §1
# [11] = biological target: Neu5Ac(a2-6)Gal(b1-4)GlcNAc(b1-6)[Gal(b1-3)]GalNAc
# Summary of the method: as §1
# [12] = biological target: Neu5Ac(a2-6)Gal(b1-4)GlcNAc6S
# Summary of the method: as §1
# Neu5Ac(a2-6)GalNAc = biological target: Neu5Ac(a2-6)GalNAc
# Summary of the method: as §1
# [13] = biological target: Neu5Ac(a2-6)GalNAc(b1-4)GlcNAc
# Summary of the method: as §1
# [14] = biological target: Neu5Ac(a2-6)GalNAc(b1-4)GlcNAc6S
# Summary of the method: as §1
# [15] = biological target: Neu5Ac(a2-6)GlcNAc(b1-4)GlcNAc
# Summary of the method: as §1
# [16] = biological target: Neu5Ac(a2-6)GlcNAc(b1-4)GlcNAc(b1-4)GlcNAc
# Summary of the method: as §1
# Neu5Ac(a2-8)Neu5Ac = biological target: Neu5Ac(a2-8)Neu5Ac
# Summary of the method: as §1
# [17] = biological target: Neu5Ac(a2-8)Neu5Ac(a2-3)Gal(b1-3)GalNAc(b1-4)[Neu5Ac(a2-3)]Gal(b1-4)Glc
# Summary of the method: as §1
# [18] = biological target: Neu5Ac(a2-8)Neu5Ac(a2-3)Gal(b1-3)GalNAc(b1-4)[Neu5Ac(a2-8)Neu5Ac(a2-3)]Gal(b1-4)Glc
# Summary of the method: as §1
# [19] = biological target: Neu5Ac(a2-8)Neu5Ac(a2-3)Gal(b1-4)Glc
# Summary of the method: as §1
# [20] = biological target: Neu5Ac(a2-8)Neu5Ac(a2-3)Gal(b1-4)GlcNAc
# Summary of the method: as §1
# [21] = biological target: Neu5Ac(a2-8)Neu5Ac(a2-3)[Gal(b1-3)GalNAc(b1-4)]Gal(b1-4)Glc
# Summary of the method: as §1
# [22] = biological target: Neu5Ac(a2-8)Neu5Ac(a2-3)[GalNAc(b1-4)]Gal(b1-4)Glc
# Summary of the method: as §1
# [23] = biological target: Neu5Ac(a2-8)Neu5Ac(a2-8)Neu5Ac
# Summary of the method: as §1
# [24] = biological target: Neu5Ac(a2-8)Neu5Ac(a2-8)Neu5Ac(a2-3)Gal(b1-4)Glc
# Summary of the method: as §1
# [25] = biological target: Neu5Ac(a2-8)Neu5Ac(a2-8)Neu5Ac(a2-3)[Gal(b1-3)GalNAc(b1-4)]Gal(b1-4)Glc
# Summary of the method: as §1
# [26] = biological target: Neu5Ac(a2-8)Neu5Ac(a2-8)Neu5Ac(a2-3)[GalNAc(b1-4)]Gal(b1-4)Glc
# Summary of the method: as §1
# [27] = biological target: Neu5Ac(a2-8)Neu5Ac(a2-8)Neu5Ac(a2-8)Neu5Ac(a2-3)[GalNAc(b1-4)]Gal(b1-4)Glc
# Summary of the method: as §1
# [28] = biological target: Neu5Ac(a2-8)Neu5Gc(a2-3)Gal(b1-4)GlcNAc
# Summary of the method: as §1
# [29] = biological target: Neu5Ac(b2-6)Gal(b1-4)GlcNAc
# Summary of the method: as §1
# Neu5Ac(b2-6)GalNAc = biological target: Neu5Ac(b2-6)GalNAc
# Summary of the method: as §1
# [30] = biological target: Neu5Ac9Ac(a2-3)Gal(b1-3)GlcNAc
# Summary of the method: as §1
# [31] = biological target: Neu5Ac9Ac(a2-3)Gal(b1-4)GlcNAc
# Summary of the method: as §1
# [32] = biological target: Neu5Ac9Ac(a2-6)Gal(b1-4)GlcNAc
# Summary of the method: as §1
# [33] = biological target: Neu5Gc(a2-3)Gal(b1-3)GlcNAc
# Summary of the method: as §1
# [34] = biological target: Neu5Gc(a2-3)Gal(b1-3)[Fuc(a1-4)]GlcNAc
# Summary of the method: as §1
# Neu5Gc(a2-3)Gal(b1-4)Glc = biological target: Neu5Gc(a2-3)Gal(b1-4)Glc
# Summary of the method: as §1
# [35] = biological target: Neu5Gc(a2-3)Gal(b1-4)GlcNAc
# Summary of the method: as §1
# [36] = biological target: Neu5Gc(a2-3)Gal(b1-4)GlcNAc(b1-3)Gal(b1-4)GlcNAc(b1-2)Man(a1-3)[Neu5Gc(a2-3)Gal(b1-4)GlcNAc(b1-3)Gal(b1-4)GlcNAc(b1-2)Man(a1-6)]Man(b1-4)GlcNAc(b1-4)GlcNAc
# Summary of the method: as §1
# [37] = biological target: Neu5Gc(a2-3)Gal(b1-4)[Fuc(a1-3)]GlcNAc
# Summary of the method: as §1
# [38] = biological target: Neu5Gc(a2-6)Gal(b1-4)GlcNAc
# Summary of the method: as §1
# Neu5Gc(a2-6)GalNAc = biological target: Neu5Gc(a2-6)GalNAc
# Summary of the method: as §1
# [39] = biological target: Neu5Gc(a2-8)Neu5Ac(a2-3)Gal(b1-4)GlcNAc
# Summary of the method: as §1
# [40] = biological target: Neu5Gc(a2-8)Neu5Gc(a2-3)Gal(b1-4)GlcNAc
# Summary of the method: as §1
binder,measurement,setting,value
B1,glycan array binding signal (z-score),[1],0.309
same,glycan array binding signal (z-score),[2],-0.363
same,glycan array binding signal (z-score),[3],-0.693
same,glycan array binding signal (z-score),[4],-0.695
same,glycan array binding signal (z-score),[5],-0.578
same,glycan array binding signal (z-score),[6],0.862
same,glycan array binding signal (z-score),[7],-0.177
same,glycan array binding signal (z-score),[8],-0.945
same,glycan array binding signal (z-score),[9],-0.726
same,glycan array binding signal (z-score),[10],0.023
same,glycan array binding signal (z-score),[11],-0.819
same,glycan array binding signal (z-score),[12],-0.74
same,glycan array binding signal (z-score),Neu5Ac(a2-6)GalNAc,-0.601
same,glycan array binding signal (z-score),[13],-0.653
same,glycan array binding signal (z-score),[14],-0.655
same,glycan array binding signal (z-score),[15],-0.508
same,glycan array binding signal (z-score),[16],0.349
same,glycan array binding signal (z-score),Neu5Ac(a2-8)Neu5Ac,-0.347
same,glycan array binding signal (z-score),[17],-0.71
same,glycan array binding signal (z-score),[18],-0.862
same,glycan array binding signal (z-score),[19],-0.804
same,glycan array binding signal (z-score),[20],-0.719
same,glycan array binding signal (z-score),[21],-0.73
same,glycan array binding signal (z-score),[22],-0.843
same,glycan array binding signal (z-score),[23],-0.687
same,glycan array binding signal (z-score),[24],0.184
same,glycan array binding signal (z-score),[25],-0.674
same,glycan array binding signal (z-score),[26],-0.19
same,glycan array binding signal (z-score),[27],-0.092
same,glycan array binding signal (z-score),[28],-0.298
same,glycan array binding signal (z-score),[29],-0.53
same,glycan array binding signal (z-score),Neu5Ac(b2-6)GalNAc,-0.776
same,glycan array binding signal (z-score),[30],0.167
same,glycan array binding signal (z-score),[31],1.61
same,glycan array binding signal (z-score),[32],-0.7
same,glycan array binding signal (z-score),[33],2.48
same,glycan array binding signal (z-score),[34],0.666
same,glycan array binding signal (z-score),Neu5Gc(a2-3)Gal(b1-4)Glc,0.075
same,glycan array binding signal (z-score),[35],0.211
same,glycan array binding signal (z-score),[36],-0.74
same,glycan array binding signal (z-score),[37],-0.363
same,glycan array binding signal (z-score),[38],0.455
same,glycan array binding signal (z-score),Neu5Gc(a2-6)GalNAc,1.18
same,glycan array binding signal (z-score),[39],-0.678
same,glycan array binding signal (z-score),[40],-0.839

# Reprinted at random: 2 entries already listed.
binder,measurement,setting,value
B1,glycan array binding signal (z-score),[13],-0.653
same,glycan array binding signal (z-score),[25],-0.674
